Results published in PMC8333361.
These are yes or no findings as the source states them, for the method shown. In cells and extracts the contact can be indirect. Some results given as binding are weak or reduced against the parent protein; the word gives no strength. Where a sequence is shown, tags or fusion partners need not be part of it.

By UniProt entry, the sequences of proteins in these tests, tags left out.
UniProt P01106: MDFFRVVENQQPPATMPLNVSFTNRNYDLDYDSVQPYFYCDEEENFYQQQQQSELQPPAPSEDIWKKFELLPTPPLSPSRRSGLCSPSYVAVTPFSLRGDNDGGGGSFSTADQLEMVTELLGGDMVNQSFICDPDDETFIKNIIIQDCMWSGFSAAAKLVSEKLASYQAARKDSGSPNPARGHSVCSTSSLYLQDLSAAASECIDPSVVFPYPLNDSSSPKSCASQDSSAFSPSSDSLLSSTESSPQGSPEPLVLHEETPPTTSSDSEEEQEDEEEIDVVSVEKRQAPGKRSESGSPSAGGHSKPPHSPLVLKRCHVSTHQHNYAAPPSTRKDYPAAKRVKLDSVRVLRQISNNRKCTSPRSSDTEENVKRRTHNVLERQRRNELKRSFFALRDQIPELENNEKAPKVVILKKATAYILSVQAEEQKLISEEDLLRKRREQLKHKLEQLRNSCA

Target: T1, GFP-ANLN-201 (human) (UniProt Q9NQW6)
T1 sequence: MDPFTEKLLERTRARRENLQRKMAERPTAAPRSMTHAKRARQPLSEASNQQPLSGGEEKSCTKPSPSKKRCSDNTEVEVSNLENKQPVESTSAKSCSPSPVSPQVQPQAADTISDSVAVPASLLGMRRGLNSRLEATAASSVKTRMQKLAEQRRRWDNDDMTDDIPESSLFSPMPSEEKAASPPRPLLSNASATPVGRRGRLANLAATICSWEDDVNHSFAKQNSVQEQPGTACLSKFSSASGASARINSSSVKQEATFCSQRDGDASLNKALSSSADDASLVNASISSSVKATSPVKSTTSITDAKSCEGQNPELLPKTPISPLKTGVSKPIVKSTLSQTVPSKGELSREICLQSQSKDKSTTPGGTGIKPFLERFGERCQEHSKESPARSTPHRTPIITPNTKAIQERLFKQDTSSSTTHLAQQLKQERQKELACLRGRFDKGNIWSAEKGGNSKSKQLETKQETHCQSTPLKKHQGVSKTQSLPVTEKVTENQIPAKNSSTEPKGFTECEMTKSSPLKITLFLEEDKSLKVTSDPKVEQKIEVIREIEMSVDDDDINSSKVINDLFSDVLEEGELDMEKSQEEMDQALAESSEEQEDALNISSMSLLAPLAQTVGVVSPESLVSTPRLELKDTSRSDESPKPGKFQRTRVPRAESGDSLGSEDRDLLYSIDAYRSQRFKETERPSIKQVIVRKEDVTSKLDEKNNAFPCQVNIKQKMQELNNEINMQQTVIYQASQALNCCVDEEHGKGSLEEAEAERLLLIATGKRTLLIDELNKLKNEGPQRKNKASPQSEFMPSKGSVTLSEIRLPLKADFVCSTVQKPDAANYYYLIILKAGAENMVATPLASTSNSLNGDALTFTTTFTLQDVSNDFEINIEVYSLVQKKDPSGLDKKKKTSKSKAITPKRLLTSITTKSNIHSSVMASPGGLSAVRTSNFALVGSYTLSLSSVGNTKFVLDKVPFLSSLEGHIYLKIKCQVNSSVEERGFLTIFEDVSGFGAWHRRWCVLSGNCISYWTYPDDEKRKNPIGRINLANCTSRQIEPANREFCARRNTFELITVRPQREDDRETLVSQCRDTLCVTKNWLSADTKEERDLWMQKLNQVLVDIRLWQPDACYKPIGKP
Assay: co-IP; lysates of SCC-9 cells transfected with GFP-ANLN-201 or GFP-ANLN-210, pre-cleared and incubated with GFP-protein-magnetic beads overnight at 4 °C; beads washed, boiled and immunoblotted; endogenous F-actin or Myc as prey

Substance: c-Myc (from UniProt P01106 1-454)
- binding: binds
